# Out of some 1,400 compounds screened, about 30 (2%) were called active. About 15% were inconclusive and are not listed. The call rests on the fitted dose curve; in most records, active means well fitted inhibition curve with a large enough effect; inconclusive means small, poorly fitted or top-dose-only effect; inactive means flat fitted curve, though single readings scatter. The list shows a part of the results.
# Assay: Firefly Luciferase Counterscreen for Inhibitors of ATXN expression
# Conditions: luminescence; series mostly up to 57.5 µM; activity change, negative = inhibition: at the top concentration
# Summary of the method: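 Recombinant firefly luciferase at 10 nM final in 50 mM Tris pH 7.5, 10 mM MgCl2, 0.05% BSA, 0.01% Tween20 with substrate; compounds up to 57 uM final, 10 min room temperature, end-point luminescence. Buffer-only wells define 100% inhibition.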
# On the % scale 0 is the no-effect control and ±100 the full control effect; potency means the concentration at half of the fitted maximal effect.
SMILES,"activity change, negative = inhibition",Potency
O=C(N/N=C\c1ccc([N+](=O)[O-])s1)c1cncc(Br)c1,inactive: -0.173%,–
Cc1ccc(NC(=O)c2cnc(N3CCN(c4ccccn4)CC3)c3ccccc23)c(Br)c1,inactive: -2.3%,–
CCCc1cnc(NCCNCC(O)COc2ccc(Cl)c(Cl)c2)nc1 (stereo unspecified),inactive: 3.12%,–
COc1ccccc1NS(=O)(=O)c1cccc(C(=O)N/N=C/c2ccc([N+](=O)[O-])o2)c1,inactive: 0.633%,–
CCn1c2ccccc2c2cc(C3C(C#N)=C(N)Oc4n[nH]c(COC)c43)ccc21 (stereo unspecified),inactive: -13%,–
Cc1nn2c(NCc3ccccn3)c3c(nc2c1-c1ccccc1)CCC3,inactive: -7.77%,–
Cc1ncc(CO)c(/C=N/NC(=O)c2cccc(S(=O)(=O)N3CCCC3)c2)c1O,inactive: -3.06%,–
Clc1ccc2nc(-c3ccccn3)c(Nc3ccc4c(c3)OCO4)n2c1,inactive: -0.752%,–
Cc1ccc2ccc(C(Nc3ccccn3)c3ccccc3)c(O)c2n1 (stereo unspecified),inactive: -7.07%,–
Nc1ccn([C@@H]2O[C@H](CO)[C@@H](O)C2O)c(=O)n1 (stereo partly specified),inactive: 3.72%,–
Cc1cc(C)cc(C(=O)NC(=S)Nc2ccc(-c3cc4ccccc4oc3=O)cc2)c1,inactive: -6.17%,–
CCCCC(=O)NC(c1ccc(OC)c(OC)c1)c1ccc2cccnc2c1O (stereo unspecified),inactive: -1.52%,–
Oc1c(C(c2ccccn2)N2CCC(Cc3ccccc3)CC2)cc(Cl)c2cccnc12 (stereo unspecified),inactive: -3%,–
Cc1cnc(NC(=O)CN2CCN(c3ccccn3)CC2)s1,inactive: -0.537%,–
NNc1ncnc2scc(-c3ccc(Cl)cc3)c12,inactive: -3.67%,–
COc1ccccc1-c1cc(NC=O)c2ncc(-c3ccc(F)cc3)n2c1,inactive: -1.97%,–
CC1CCC(CN2C(Nc3ccccc3)=NC[C@@H]2Cc2ccccc2)CC1 (stereo partly specified),inactive: 0.876%,–
O=c1cc(-c2ccncc2)oc2c1ccc1ccccc12,inactive: -9.69%,–
Cc1cc(SCC(=O)NN)c2cc(Br)ccc2n1,inactive: -5.09%,–
O=C(CNC(=O)c1ccccc1Br)N/N=C/c1ccccc1O,inactive: -5.02%,–
Cc1cccc(NC(=O)c2ccc(S(=O)(=O)N(C)c3ccccc3)cc2)n1,inactive: -14.2%,–
COc1cc2nc(CN(C)Cc3ccc(SC)cc3)[nH]c(=O)c2cc1OC,inactive: -1.17%,–
Cc1ccc(N(C)S(=O)(=O)c2cccc(C(=O)OCC(=O)c3c(N)n(C)c(=O)n(C)c3=O)c2)cc1,inactive: 0.56%,–
Cc1ccc(S(=O)(=O)c2nc(NCc3ccc4c(c3)OCO4)sc2Cl)cc1,inactive: -12%,–
O=C(N/N=C\c1c(O)ccc2ccccc12)c1ccc(S(=O)(=O)N2CCCCC2)cc1,inactive: -3.32%,–
COc1ccc(C(=O)NCC(=O)N/N=C/c2ccc([N+](=O)[O-])s2)cc1OC,inactive: -3.6%,–

# Reprinted from the listing (14 entries):
SMILES,"activity change, negative = inhibition",Potency
Cc1cc(C)cc(C(=O)NC(=S)Nc2ccc(-c3cc4ccccc4oc3=O)cc2)c1,inactive: -6.17%,–
CCCCC(=O)NC(c1ccc(OC)c(OC)c1)c1ccc2cccnc2c1O (stereo unspecified),inactive: -1.52%,–
Oc1c(C(c2ccccn2)N2CCC(Cc3ccccc3)CC2)cc(Cl)c2cccnc12 (stereo unspecified),inactive: -3%,–
Cc1cnc(NC(=O)CN2CCN(c3ccccn3)CC2)s1,inactive: -0.537%,–
NNc1ncnc2scc(-c3ccc(Cl)cc3)c12,inactive: -3.67%,–
COc1ccccc1-c1cc(NC=O)c2ncc(-c3ccc(F)cc3)n2c1,inactive: -1.97%,–
CC1CCC(CN2C(Nc3ccccc3)=NC[C@@H]2Cc2ccccc2)CC1 (stereo partly specified),inactive: 0.876%,–
O=c1cc(-c2ccncc2)oc2c1ccc1ccccc12,inactive: -9.69%,–
Cc1cc(SCC(=O)NN)c2cc(Br)ccc2n1,inactive: -5.09%,–
O=C(CNC(=O)c1ccccc1Br)N/N=C/c1ccccc1O,inactive: -5.02%,–
Cc1cccc(NC(=O)c2ccc(S(=O)(=O)N(C)c3ccccc3)cc2)n1,inactive: -14.2%,–
COc1cc2nc(CN(C)Cc3ccc(SC)cc3)[nH]c(=O)c2cc1OC,inactive: -1.17%,–
Cc1ccc(N(C)S(=O)(=O)c2cccc(C(=O)OCC(=O)c3c(N)n(C)c(=O)n(C)c3=O)c2)cc1,inactive: 0.56%,–
Cc1ccc(S(=O)(=O)c2nc(NCc3ccc4c(c3)OCO4)sc2Cl)cc1,inactive: -12%,–

# Next part.

SMILES,"activity change, negative = inhibition",Potency
O=C(NN=Cc1ccccc1O)c1cccc([N+](=O)[O-])c1,inactive: -1.53%,–
Cc1ccc(F)cc1-c1cc2nc(NCCCN(C)C)n(C)c(=O)c2s1,inactive: 4.86%,–
CC(O)CNCCNCc1c(OCc2ccccc2)ccc2ccccc12 (stereo unspecified),inactive: 1.89%,–
Cc1cc(NCc2ccccn2)n2nc(C)c(-c3ccc(Cl)cc3)c2n1,inactive: -5.83%,–
O=C(CSc1nc2ncc(Br)cc2[nH]1)Nc1ccccc1-c1ccccc1,inactive: -15.3%,–
c1ccc(CN=C(NCc2ccccc2)NCc2ccccc2)cc1,inactive: 4.1%,–
CC(=O)Nc1ccc(N(CC(O)Cn2c3ccccc3c3ccccc32)S(=O)(=O)c2ccc(C)cc2)cc1 (stereo unspecified),inactive: 1.22%,–
CCN1CCN(CCCNC(=O)c2ccc(/C=C3/Sc4ccccc4N(Cc4ccccc4F)C3=O)cc2)CC1,inactive: -17.5%,–
CCCCC(=O)NC(c1ccccc1)c1ccc2cccnc2c1O (stereo unspecified),inactive: 0.103%,–
Cc1[nH]c(=O)c(C(=O)/C=C/c2ccccc2)c2c1CCCC2,inactive: 1.46%,–
COc1ccc(-c2nc(NC(=O)C3CC(=O)N(c4ccc5c(c4)OCCO5)C3)sc2C)cc1 (stereo unspecified),inactive: -10.4%,–
C=CCNc1oc(-c2ccc(Cl)cc2)nc1C#N,inactive: 2.23%,–
CCOc1ccc(OCC)c(NC(=O)Nc2ccc3c(c2)N(C)C(=O)CS3)c1,inactive: -10.2%,–
CC1C(=O)C(C)C(c2cc(Br)ccc2O)NC1c1cc(Br)ccc1O (stereo unspecified),inactive: -3.17%,–
C=CCc1ccccc1OCC(O)CN1CCN(CCN2C(=O)c3cccc4cccc(c34)C2=O)CC1 (stereo unspecified),inactive: -1.49%,–
CC(=O)Oc1c(Br)cc(N(C(C)=O)S(=O)(=O)c2ccccc2)c2ccccc12,inactive: -17.5%,–
CNC(=O)c1sc(N2N=C3/C(=C/c4ccccc4)CCCC3C2c2ccccc2)nc1C (stereo unspecified),inactive: -2.34%,–
O=C(Nc1cccc(-c2cccc(Cl)c2)c1)C1CCN(Cc2ccccn2)CC1,inactive: -8.36%,–
Cc1cc(N/N=C\c2ccc(Br)cc2)nc(-n2nc(C)cc2C)n1,inactive: -1.82%,–
CC1Sc2ccc(S(=O)(=O)CCC(=O)N3CCN(c4cccc(Cl)c4)CC3)cc2NC1=O (stereo unspecified),inactive: -1.49%,–
CCC(=O)NC(c1ccc(Cl)cc1Cl)c1ccc2cccnc2c1O (stereo unspecified),inactive: -9.67%,–
Cc1ccc(NS(=O)(=O)c2ccc(NC(=O)C(C)Sc3ccc(Cl)cc3)cc2)c(C)c1 (stereo unspecified),inactive: -6.61%,–
CCOC(=O)c1c(NC(=O)COC(=O)Cn2cnc3ccccc32)sc(C)c1C,inactive: -3.67%,–
CCC(=O)OC1(C(C)=O)CCC2C3CCC4=CC(=O)CCC4(C)C3CCC21C (stereo unspecified),inactive: 5.01%,–
O=C(Nc1ccccc1Cl)N1CCCN(c2nc(-c3ccccc3)ns2)CC1,inactive: -6.35%,–
O=C(Nc1nc(-c2ccccn2)cs1)c1ccc(F)c(S(=O)(=O)N2CCOCC2)c1,inactive: -19.5%,–

SMILES,"activity change, negative = inhibition",Potency
COc1ccc(C2CC(c3cccc(Br)c3)=NN2c2ccc(S(N)(=O)=O)cc2)cc1 (stereo unspecified),inactive: -5.04%,–
CCCOCc1ccc(O)c2ncccc12,inactive: 0.895%,–
CC1CCN(Cc2c(C(=O)N/N=C/c3ccccc3O)nnn2-c2nonc2N)CC1,inactive: 1.7%,–
COc1ccccc1NCC(=O)N/N=C/c1c(O)ccc2ccccc12,inactive: -4.67%,–
CC(=O)Nc1cccc(-c2ccnc3c2CC(C)(C(=O)Nc2cccc(Oc4ccccc4)c2)O3)c1 (stereo unspecified),inactive: -1.45%,–
O=C(NNC(=O)c1cnccn1)c1ccc(Cl)c(Cl)c1,inactive: -13.3%,–
CCCc1nc2c(c(=O)c3ccccc3n2C)c(=O)n1C1CCCCCC1,inactive: 1.5%,–
CS/C(=C\[N+](=O)[O-])Nc1ccc(OC(F)(F)F)cc1,inactive: -12.1%,–
CCN1CCN(C(c2ccc(C(F)(F)F)cc2)c2ccc3cccnc3c2O)CC1 (stereo unspecified),inactive: -0.327%,–
O=C(CSc1nnnn1-c1ccccc1)Nc1nsc(-c2ccccc2)n1,inactive: -1.47%,–
O=C(Nc1nc(NC(=O)c2ccco2)n(-c2ccccc2)n1)c1ccccc1,inactive: 3.47%,–
Cc1cc(-c2ccccc2)n(-c2cc(N/N=C/c3ccccc3O)ncn2)n1,inactive: 1.36%,–
CN1CCN(c2nc(-c3ccccn3)nc3ccccc23)CC1,inactive: -0.396%,–
Cc1c(-c2cccc(Cl)c2)nc2ccccc2c1C(=O)OC/C(O)=C(\C#N)c1nc2ccccc2[nH]1,inactive: -9.44%,–
CCCn1ncc(CN2CCC(C(=O)Nc3cccc(-c4cccc(F)c4)c3)CC2)c1C,inactive: -7.08%,–
Cn1c(NCCN2CCCC2)nc2cc(-c3ccsc3)sc2c1=O,inactive: -2.46%,–
Cc1cc(C)nc(N/N=C2/CCCC/C2=C\c2ccccc2)n1,inactive: -3.98%,–
CCOC(=O)C(CC)(CC)C(=O)/C=C/c1ccc(OC)cc1,inactive: 2.01%,–
Cc1ccc(S(=O)(=O)/N=C(\Sc2ccccc2)c2ccccc2)cc1,inactive: -13.3%,–
O=c1cc(N2CCN(c3cccc(Cl)c3)CC2)[nH]c(=O)n1C1CCCCC1,inactive: 7.81%,–
CCOc1cc(/C=C(/C#N)c2nc3ccccc3[nH]2)ccc1Oc1ccc([N+](=O)[O-])cn1,inactive: -2.22%,–
Cc1ccc(C(=O)N/N=C/c2nc3ccccc3n2C)cc1,inactive: -19.4%,–
Cc1c(N/N=C(\C#N)C(=O)c2ccccc2)c(=O)n(-c2ccccc2)n1C,inactive: -3.2%,–
O=C(NNC(=O)C(c1ccccc1)c1ccccc1)c1ccccn1,inactive: -0.424%,–
CC(C)(C)c1cc(C(=O)NNc2cc(C(F)(F)F)ccc2Cl)n(Cc2ccccc2)n1,inactive: -5.25%,–
CN(Cc1ccccc1)C(=O)c1ccc(Nc2nc(C(N)Cc3ccccc3)cs2)nc1 (stereo unspecified),inactive: 0.41%,–

SMILES,"activity change, negative = inhibition",Potency
COCOCCn1cc(CN2CCS(=O)(=O)N(Cc3ccc(-c4ccc(OC)cc4)cc3)C(CC(C)C)C2=O)nn1 (stereo unspecified),inactive: -1.23%,–
C=CCc1cccc(/C=N/NC(=O)CCCNc2ccc(C)cc2)c1O,inactive: -8.26%,–
O=C(CSc1nnc(-c2ccc(Br)cc2)o1)Nc1cccc(C(=O)O)c1,–,active: 3.98 µM
CC1CCCCN1C(=O)C1CCN(c2nc(-c3ccccc3)nc3c2CCC3)CC1 (stereo unspecified),inactive: -2.74%,–
COC1=CC(=O)C=C(OC)C1(O)CC(C)=O,inactive: -1.23%,–
Cc1cccc2sc(NNC(=O)c3ccc(S(=O)(=O)N4CCCC(C)C4)cc3)nc12 (stereo unspecified),inactive: -15.4%,–
CC(=O)NC(C)c1cc(Cl)c2cccnc2c1O (stereo unspecified),inactive: -4.01%,–
COc1ccc(NC(C)C(=O)N/N=C/c2c(O)ccc3ccccc23)cc1 (stereo unspecified),inactive: 1.12%,–
O=C(Nc1nc(-c2ccccc2)cs1)c1ccccc1NS(=O)(=O)c1ccc(F)cc1,–,active: 28.2 µM
Cc1ccc(C(=O)NC(C)CCc2ccccc2)cc1S(=O)(=O)N1CCOCC1 (stereo unspecified),inactive: -2.51%,–
Cc1ccc(S(=O)(=O)Nc2cccc3cccnc23)c([N+](=O)[O-])c1,inactive: -9.22%,–
COC(=O)c1ccsc1NC(=O)CN1CCN(Cc2ccc3c(c2)OCO3)CC1,inactive: 0.15%,–
CCN(CC)S(=O)(=O)c1cccc(C(=O)N/N=C(\C)c2ccc(O)cc2O)c1,inactive: -10.3%,–
Fc1ccc(Nc2nnc(C(F)(F)F)s2)cc1Cl,inactive: -13.2%,–
C=CCn1c(COc2ccccc2)nnc1SC(C)C(=O)N/N=C/c1cc(Cl)ccc1O (stereo unspecified),inactive: -15.3%,–
COc1ccc(NS(=O)(=O)c2ccc(NC(=O)c3ccc(CN4CCOCC4)cc3)cc2)cc1,inactive: -4.61%,–
O=C(Nc1ccc(N2CCN(C(=O)c3ccco3)CC2)c(Cl)c1)c1cccs1,inactive: -17.5%,–
Cn1c(CO)cnc1SCC(=O)c1ccc(Br)cc1,inactive: -8.93%,–
CC(Nc1ccccc1CO)C(=O)Nc1cccc(Cl)c1Cl (stereo unspecified),inactive: 0.991%,–
S=C(NCCCN1CCOCC1)N1CCN(c2nc(-c3ccccc3)cs2)CC1,inactive: -13.2%,–
Cc1cc(C(=O)N/N=C/c2ccc([N+](=O)[O-])s2)n[nH]1,inactive: -6.06%,–
COc1ccc(/C=N/NC(=O)c2nc(-c3ccccc3)n(-c3ccccc3)n2)c(O)c1,inactive: -18.1%,–
O=C(Nc1ccc(Cc2ccncc2)cc1)c1ccc(S(=O)(=O)N2CCCC2)cc1,inactive: -0.827%,–

# — PubChem BioAssay AID1745846 (National Center for Advancing Translational Sciences (NCATS), 2022)
